The record followed here is PMC9748900, “Unconventional isoquinoline-based SERMs elicit fulvestrant-like transcriptional programs in ER+ breast cancer cells” (NPJ Breast Cancer, 2022).

This series concerns transcriptome of T47D breast cancer cells. Briefly: RNA sequencing of T47D cells. The series is classed as cell-based. The following applies: for transcripts overlapping with T6I-29-1A / unique transcripts: 1 μM + 1 nM E2 versus E2-only, 16 h. As to the method: We next used RNA transcriptomic analysis (RNAseq) to identify differentially affected genes. […] All sequencing runs were performed with three replicates per treatment.
T47D breast cancer cells were grown in 6-well dishes at 50,000 cells per well. […] After 24 h, they were placed in serum-starved media for 48 h. […] RNA was isolated using a Qiagen RNeasy Kit then sent to Novogene for sequencing and bioinformatics analysis.

Consider `CCNCCc1ccc(CN(CC)c2cc(OC)ccc2[C@@H]2CCc3cc(O)ccc3C2)cc1` [RAD1901, elacestrant], for which the “transcripts overlapping with T6I-29-1A” value was determined as 73 and the unique transcripts is reported as 116.

`Oc1ccc2c(c1)CC[C@H](c1ccccc1)[C@@H]2c1ccc(OCCN2CCCC2)cc1` [Laso, lasofoxifene]: the “transcripts overlapping with T6I-29-1A” value amounted to 77 and the unique transcripts worked out at 158.

`C[C@]12CC[C@@H]3c4ccc(O)cc4CC[C@H]3[C@@H]1CC[C@@H]2O` [E2, 17β-estradiol]: under “1 nM E2 versus veh”, the downregulated genes is 4394 and the upregulated genes is on record as 4709.

With `C[C@]12CC[C@@H]3c4ccc(O)cc4C[C@@H](CCCCCCCCC[S+]([O-])CCCC(F)(F)C(F)(F)F)[C@H]3[C@@H]1CC[C@@H]2O` (some centres unmarked) [ICI, fulvestrant], the “transcripts overlapping with T6I-29-1A” value was found to be 116 and the unique transcripts was found to be 245.
